Measurements reported in the supplement of paper PMC7646827.
Repeats are few or missing, and single values can be far off.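 All cells are established human bladder cancer lines, one derived from a patient-derived xenograft. A luminescent ATP assay measured viability as percent inhibition relative to vehicle across seven dilutions. The paper rates scores above 59 very active, 30–59 active, 21–29 semi-active, 9–20 low active, below 9 inactive.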

How the values were obtained:
Assay in all cases: drug sensitivity score DSS3 (score 0-100); higher = more sensitive; extreme values may be limits of the assay
Details in all cases: culture: 3D, ultra-low attachment; treatment time: 5 days
UM-UC-15 = tested on: UM-UC-15
T-24 = tested on: T-24
5637 = tested on: 5637
TCCSUP = tested on: TCCSUP
UM-UC-5 = tested on: UM-UC-5
BC8149 = tested on: BC8149
UM-UC-12 = tested on: UM-UC-12
UM-UC-14 = tested on: UM-UC-14
UM-UC-18 = tested on: UM-UC-18
SW780 = tested on: SW780
J82 = tested on: J82
SCaBER = tested on: SCaBER
UM-UC-6 = tested on: UM-UC-6
UM-UC-9 = tested on: UM-UC-9
UM-UC-17 = tested on: UM-UC-17
UM-UC-3 = tested on: UM-UC-3
UM-UC-1 = tested on: UM-UC-1

Row | SMILES | drug sensitivity score DSS3 (UM-UC-15) | drug sensitivity score DSS3 (T-24) | drug sensitivity score DSS3 5637 | drug sensitivity score DSS3 (TCCSUP) | drug sensitivity score DSS3 (UM-UC-5) | drug sensitivity score DSS3 (BC8149) | drug sensitivity score DSS3 (UM-UC-12) | drug sensitivity score DSS3 (UM-UC-14) | drug sensitivity score DSS3 (UM-UC-18) | drug sensitivity score DSS3 (SW780) | drug sensitivity score DSS3 (J82) | drug sensitivity score DSS3 (SCaBER) | drug sensitivity score DSS3 (UM-UC-6) | drug sensitivity score DSS3 (UM-UC-9) | drug sensitivity score DSS3 (UM-UC-17) | drug sensitivity score DSS3 (UM-UC-3) | drug sensitivity score DSS3 (UM-UC-1)
1 | Cc1cc(C(C)Nc2ccccc2)c2nc(N3CCOCC3)cc(=O)n2c1 (stereo not given) [TGX-221] (max dose 10000 nM) | 0 | 0 | 0.858 | 2.42 | 0 | 0.346 | 0 | 0 | 0 | 0 | 0 | 0 | 0 | 0 | 0 | 0 | 0
2 | CC(C(=O)O)c1ccc2c(c1)[nH]c1ccc(Cl)cc12 (stereo not given) [Carprofen] (max dose 10000 nM) | 0 | 0 | 0 | 0 | 0 | 0 | 0 | 0 | 0 | 0 | 0 | 0 | 0 | 0 | 0 | 0 | 0
3 | CN(C)Cc1c(C(=O)NCCOc2ccc(C(=O)NO)cc2)oc2ccccc12 (max dose 10000 nM) | 41.1 | 12.4 | 10.8 | 24.8 | 3.74 | 20.5 | 18 | 7.01 | 7.48 | 0 | 6.5 | 3.35 | 8.14 | 2.83 | 7.53 | 20.6 | 2.92
4 | CCC(CC)CC1(C(=O)Nc2ccccc2SC(=O)C(C)C)CCCCC1 (max dose 10000 nM) | 0 | 0 |  | 1.69 | 0 | 0 | 0 | 0.238 | 0 | 0 | 0 | 0 | 0 | 0 | 2.27 | 2.72 | 0
5 | Oc1cccc(-c2nc(N3CCOCC3)c3oc4ncccc4c3n2)c1 [PI-103] (max dose 10000 nM) | 0 | 0 |  |  | 0 | 37.5 | 38.8 | 0 | 6.93 | 0 | 0 | 11.9 | 0 | 0 | 0 | 38.5 | 6.43
6 | C=CC(=O)Nc1ccc2ncnc(Nc3ccc(OCc4cccc(F)c4)c(Cl)c3)c2c1 [AST-1306] (max dose 10000 nM) | 0 | 23.2 | 23.7 | 19.5 | 0.198 | 25.3 | 20.8 |  | 27.8 |  | 0 | 27.1 | 2.92 |  |  | 0 | 0
7 | Cn1c(Nc2ccc(C(F)(F)F)cc2)nc2cc(Oc3ccnc(-c4ncc(C(F)(F)F)[nH]4)c3)ccc21 [RAF265 (CHIR-265)] (max dose 10000 nM) | 0 | 0 |  | 3.86 | 2.07 | 10.4 | 0.857 | 3.7 | 0.0482 | 0 | 0.891 | 0 | 4.19 | 0 | 0 | 1.34 | 1.64
8 | O=C(O)c1cc(C(F)(F)F)ccc1N1CC[C@H](OCc2ccccn2)C1 [XEN445] (max dose 10000 nM) | 0 | 0.701 | 2.8 | 8.55 | 0 | 5.55 | 0 | 2.26 | 0 | 0 | 0 | 0 | 1.74e-05 | 0 |  | 0.109 | 0
9 | O=C(Cc1ccc(-c2ccc(OCCN3CCOCC3)cc2)cn1)NCc1ccccc1 [KX2-391] (max dose 10000 nM) | 0 | 2.41 | 64.7 | 68.6 | 13.8 | 28.3 | 27.4 | 63.1 | 0 | 23.5 | 0.517 | 18.7 | 48.1 |  | 63.8 | 20.6 | 41.8
10 | CC(C)n1c(=O)n(C)c2cnc3cc(F)c(-c4ccc(OCCCN5CCCCC5)nc4)cc3c21 [AZD1390] (max dose 10000 nM) | 0 | 0 | 0 | 0 | 0 | 0 | 0 | 3.35 | 0 |  | 0 | 0 | 0 | 0 | 0 | 0 | 0
11 | CN1CCN(c2nc(C3=C(c4c[nH]c5ccccc45)C(=O)NC3=O)c3ccccc3n2)CC1 [Sotrastaurin] (max dose 10000 nM) | 0 | 0 | 0 | 0 | 0 | 0 | 0 | 0 | 0 | 0 | 0 | 0 | 0 | 0 |  | 0 | 0

Complete entries, looked up by structure. Order of values: drug sensitivity score DSS3 (UM-UC-15) | drug sensitivity score DSS3 (T-24) | drug sensitivity score DSS3 5637 | drug sensitivity score DSS3 (TCCSUP) | drug sensitivity score DSS3 (UM-UC-5) | drug sensitivity score DSS3 (BC8149) | drug sensitivity score DSS3 (UM-UC-12) | drug sensitivity score DSS3 (UM-UC-14) | drug sensitivity score DSS3 (UM-UC-18) | drug sensitivity score DSS3 (SW780) | drug sensitivity score DSS3 (J82) | drug sensitivity score DSS3 (SCaBER) | drug sensitivity score DSS3 (UM-UC-6) | drug sensitivity score DSS3 (UM-UC-9) | drug sensitivity score DSS3 (UM-UC-17) | drug sensitivity score DSS3 (UM-UC-3) | drug sensitivity score DSS3 (UM-UC-1)
CC(C(=O)O)c1ccc2c(c1)[nH]c1ccc(Cl)cc12 (stereo not given) [Carprofen] (max dose 10000 nM) reads 0 | 0 | 0 | 0 | 0 | 0 | 0 | 0 | 0 | 0 | 0 | 0 | 0 | 0 | 0 | 0 | 0
CN(C)Cc1c(C(=O)NCCOc2ccc(C(=O)NO)cc2)oc2ccccc12 (max dose 10000 nM) reads 41.1 | 12.4 | 10.8 | 24.8 | 3.74 | 20.5 | 18 | 7.01 | 7.48 | 0 | 6.5 | 3.35 | 8.14 | 2.83 | 7.53 | 20.6 | 2.92
